These are yes or no findings as the source states them, for the method shown.

By UniProt entry, the sequences of proteins in these tests, tags left out. Where a name states a change or a piece, a line headed by the entry shows the natural chain unless it says otherwise.
UniProt P04695: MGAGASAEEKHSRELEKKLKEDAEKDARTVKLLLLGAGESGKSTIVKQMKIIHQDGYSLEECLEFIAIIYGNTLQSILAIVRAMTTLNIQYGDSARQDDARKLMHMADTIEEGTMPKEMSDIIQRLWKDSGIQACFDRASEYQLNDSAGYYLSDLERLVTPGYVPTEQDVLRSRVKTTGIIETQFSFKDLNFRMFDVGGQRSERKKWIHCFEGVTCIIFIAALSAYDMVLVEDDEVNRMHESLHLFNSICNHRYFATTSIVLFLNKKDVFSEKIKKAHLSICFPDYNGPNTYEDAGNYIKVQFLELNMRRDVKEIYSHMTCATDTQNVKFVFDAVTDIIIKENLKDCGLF

Among the data in paper PMC6625990, “Structural underpinnings of Ric8A function as a G-protein α-subunit chaperone and guanine-nucleotide exchange factor” (Nature Communications, 2019) are binding values, retold here.

The assay addresses Gαt333–350 (UniProt P04695). Nature of the assay: BLI; N-terminally biotinylated Gα peptides on streptavidin biosensors, Ric8A proteins in solution; Octet RED96, 26 °C, 20 mM Tris, 150 mM KCl, 5% glycerol, 1 mM TCEP, 0.5 mg/ml BSA, pH 8.0; kinetic fit (1:1 model) and steady-state fit (one site); both purified.

B1: Ric8A1–492 R75M (domain or fragment, UniProt Q5E9J8 1-492)
chain: MEPRAVADALETGEEDVVMEALRAYNRENSQSFTFDDAQQEDRKRLAKLLVSVLEQGLPPSRRVIWLQSIRILSMDRSCLDSFTSRRSLQALACYAGISASQGSVPEPLNMDVVLESLKCLCNLVLSSPVAQALAAEAGLVVRLAERVGLCRQSSFPHDVQFFDLRLLFLLTALRTDVRQQLFQELQGVRLLTRALELTLGMTEGERHPELLPPQETERAMEILKVLFNITFDSIKREVDEEDAALYRHLGTLLRHCVMLAAAGDRTEELHGHAVNLLGNLPVKCLDVLLTLEPHEGSLEFLGVNMDVIRVLLSFMEKRLHQTHRLKESVAPVLSVLTECARMHRPARKFLKAQVLPPLRDVRTRPEVGELLRNKLVRLMTHLDTDVKRVAAEFLFVLCSESVPRFIKYTGYGNAAGLLAARGLMAGGRPEGQYSEDEDTDTDEYKEAKASINPVTGRVEEKPPNPMEGMTEEQKEHEAMKLVNMFDKLSRH
As to B1, the binding entry was “no binding”.

B2: Ric8A1–492 N123E (domain or fragment, UniProt Q5E9J8 1-492)
chain: MEPRAVADALETGEEDVVMEALRAYNRENSQSFTFDDAQQEDRKRLAKLLVSVLEQGLPPSRRVIWLQSIRILSRDRSCLDSFTSRRSLQALACYAGISASQGSVPEPLNMDVVLESLKCLCELVLSSPVAQALAAEAGLVVRLAERVGLCRQSSFPHDVQFFDLRLLFLLTALRTDVRQQLFQELQGVRLLTRALELTLGMTEGERHPELLPPQETERAMEILKVLFNITFDSIKREVDEEDAALYRHLGTLLRHCVMLAAAGDRTEELHGHAVNLLGNLPVKCLDVLLTLEPHEGSLEFLGVNMDVIRVLLSFMEKRLHQTHRLKESVAPVLSVLTECARMHRPARKFLKAQVLPPLRDVRTRPEVGELLRNKLVRLMTHLDTDVKRVAAEFLFVLCSESVPRFIKYTGYGNAAGLLAARGLMAGGRPEGQYSEDEDTDTDEYKEAKASINPVTGRVEEKPPNPMEGMTEEQKEHEAMKLVNMFDKLSRH
As for B2, the binding entry is reported as “no binding”.

B3: Ric8A1–426 (domain or fragment, UniProt Q5E9J8 1-426)
chain: MEPRAVADALETGEEDVVMEALRAYNRENSQSFTFDDAQQEDRKRLAKLLVSVLEQGLPPSRRVIWLQSIRILSRDRSCLDSFTSRRSLQALACYAGISASQGSVPEPLNMDVVLESLKCLCNLVLSSPVAQALAAEAGLVVRLAERVGLCRQSSFPHDVQFFDLRLLFLLTALRTDVRQQLFQELQGVRLLTRALELTLGMTEGERHPELLPPQETERAMEILKVLFNITFDSIKREVDEEDAALYRHLGTLLRHCVMLAAAGDRTEELHGHAVNLLGNLPVKCLDVLLTLEPHEGSLEFLGVNMDVIRVLLSFMEKRLHQTHRLKESVAPVLSVLTECARMHRPARKFLKAQVLPPLRDVRTRPEVGELLRNKLVRLMTHLDTDVKRVAAEFLFVLCSESVPRFIKYTGYGNAAGLLAARGLMA
For B3, the binding entry is listed as “no binding”.
